Measured values: patent US5929063A, “Mercapto and seleno derivatives as inhibitors of nitric oxide synthase” (priority 1995, dated 1999)
At least one compound was matched to its structure with a doubt left.

Key:
[1] = Reduction of Aldrithiol-2 (free thiol/selenol reagent) by isoselenourea solutions; assay type: physicochemical; conditions: neutral vs lower pH
[2] = Concentration in solution measured by HPLC / rearrangement; assay type: physicochemical; conditions: for loss of compound concentration in solution by HPLC: pH dependence; for rearrangement in solution: suggested by Aldrithiol-2 and HPLC data

Row | SMILES | reduction of Aldrithiol-2 [1] | loss of compound concentration in solution by HPLC [2] | rearrangement in solution [2]
1 | N=C(N)[Se]CCN [AE-SeU, aminoethylisoselenourea] | rapid at neutral pH, but slower at lower pH values | diminished at rates that were similarly pH dependent | rearrange to yield other species predominantly selenoalkylguanidines
2 | N=C(N)[Se]CCCN [AP-SeU, aminopropylisoselenourea] | rapid at neutral pH, but slower at lower pH values | diminished at rates that were similarly pH dependent | rearrange to yield other species predominantly selenoalkylguanidines
